Laboratory results published in doi:10.1101/2021.12.03.471073.
Results are given in words; binding and its absence hold for the method and conditions named. Binding seen in cells or lysates may run through a third protein. Some results given as binding are weak or reduced against the parent protein; the word gives no strength.

Protein sequences, listed by entry. Tags and fused reporters are not part of them.
UniProt P29375: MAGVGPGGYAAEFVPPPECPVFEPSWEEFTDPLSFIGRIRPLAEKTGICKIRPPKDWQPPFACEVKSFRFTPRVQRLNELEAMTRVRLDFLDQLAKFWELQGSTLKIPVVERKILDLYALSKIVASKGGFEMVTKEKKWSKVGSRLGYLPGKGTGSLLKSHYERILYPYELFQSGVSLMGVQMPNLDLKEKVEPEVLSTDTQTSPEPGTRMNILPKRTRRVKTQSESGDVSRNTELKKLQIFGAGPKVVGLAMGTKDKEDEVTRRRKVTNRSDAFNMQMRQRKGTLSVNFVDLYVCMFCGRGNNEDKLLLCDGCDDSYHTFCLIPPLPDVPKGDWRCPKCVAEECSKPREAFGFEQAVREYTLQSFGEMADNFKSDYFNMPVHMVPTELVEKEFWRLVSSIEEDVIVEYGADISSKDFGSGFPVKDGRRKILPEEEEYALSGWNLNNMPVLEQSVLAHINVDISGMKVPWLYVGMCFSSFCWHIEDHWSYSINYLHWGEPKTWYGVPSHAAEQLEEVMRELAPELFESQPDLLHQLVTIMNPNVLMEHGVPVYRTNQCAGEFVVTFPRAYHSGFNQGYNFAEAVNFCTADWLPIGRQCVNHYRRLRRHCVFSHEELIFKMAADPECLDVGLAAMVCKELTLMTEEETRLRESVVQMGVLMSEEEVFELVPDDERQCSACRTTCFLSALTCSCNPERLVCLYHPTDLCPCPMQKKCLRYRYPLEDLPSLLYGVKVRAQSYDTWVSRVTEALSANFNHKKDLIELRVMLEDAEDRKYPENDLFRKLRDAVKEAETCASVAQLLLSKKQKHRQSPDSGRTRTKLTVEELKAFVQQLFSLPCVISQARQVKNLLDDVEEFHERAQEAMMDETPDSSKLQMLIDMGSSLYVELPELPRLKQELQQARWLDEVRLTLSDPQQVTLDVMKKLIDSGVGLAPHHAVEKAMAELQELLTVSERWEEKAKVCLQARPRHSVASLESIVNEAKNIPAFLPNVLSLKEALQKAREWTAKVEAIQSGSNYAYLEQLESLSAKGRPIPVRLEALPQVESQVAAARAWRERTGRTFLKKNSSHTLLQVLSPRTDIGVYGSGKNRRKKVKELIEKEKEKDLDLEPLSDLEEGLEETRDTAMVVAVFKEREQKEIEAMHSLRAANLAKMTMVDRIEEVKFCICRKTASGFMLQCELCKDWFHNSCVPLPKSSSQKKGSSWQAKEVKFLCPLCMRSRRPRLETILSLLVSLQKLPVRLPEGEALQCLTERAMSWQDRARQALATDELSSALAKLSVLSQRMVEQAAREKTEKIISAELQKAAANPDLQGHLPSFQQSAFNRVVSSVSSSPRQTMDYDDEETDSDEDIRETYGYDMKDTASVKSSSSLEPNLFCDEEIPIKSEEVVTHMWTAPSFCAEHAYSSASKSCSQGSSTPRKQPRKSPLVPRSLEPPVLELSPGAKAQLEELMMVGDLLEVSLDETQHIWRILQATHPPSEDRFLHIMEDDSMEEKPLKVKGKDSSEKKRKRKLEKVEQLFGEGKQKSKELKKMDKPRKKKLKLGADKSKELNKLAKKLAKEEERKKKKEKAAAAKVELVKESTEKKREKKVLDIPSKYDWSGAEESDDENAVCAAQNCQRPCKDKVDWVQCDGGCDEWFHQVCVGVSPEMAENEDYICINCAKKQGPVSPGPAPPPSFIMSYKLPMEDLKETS
UniProt Q03164: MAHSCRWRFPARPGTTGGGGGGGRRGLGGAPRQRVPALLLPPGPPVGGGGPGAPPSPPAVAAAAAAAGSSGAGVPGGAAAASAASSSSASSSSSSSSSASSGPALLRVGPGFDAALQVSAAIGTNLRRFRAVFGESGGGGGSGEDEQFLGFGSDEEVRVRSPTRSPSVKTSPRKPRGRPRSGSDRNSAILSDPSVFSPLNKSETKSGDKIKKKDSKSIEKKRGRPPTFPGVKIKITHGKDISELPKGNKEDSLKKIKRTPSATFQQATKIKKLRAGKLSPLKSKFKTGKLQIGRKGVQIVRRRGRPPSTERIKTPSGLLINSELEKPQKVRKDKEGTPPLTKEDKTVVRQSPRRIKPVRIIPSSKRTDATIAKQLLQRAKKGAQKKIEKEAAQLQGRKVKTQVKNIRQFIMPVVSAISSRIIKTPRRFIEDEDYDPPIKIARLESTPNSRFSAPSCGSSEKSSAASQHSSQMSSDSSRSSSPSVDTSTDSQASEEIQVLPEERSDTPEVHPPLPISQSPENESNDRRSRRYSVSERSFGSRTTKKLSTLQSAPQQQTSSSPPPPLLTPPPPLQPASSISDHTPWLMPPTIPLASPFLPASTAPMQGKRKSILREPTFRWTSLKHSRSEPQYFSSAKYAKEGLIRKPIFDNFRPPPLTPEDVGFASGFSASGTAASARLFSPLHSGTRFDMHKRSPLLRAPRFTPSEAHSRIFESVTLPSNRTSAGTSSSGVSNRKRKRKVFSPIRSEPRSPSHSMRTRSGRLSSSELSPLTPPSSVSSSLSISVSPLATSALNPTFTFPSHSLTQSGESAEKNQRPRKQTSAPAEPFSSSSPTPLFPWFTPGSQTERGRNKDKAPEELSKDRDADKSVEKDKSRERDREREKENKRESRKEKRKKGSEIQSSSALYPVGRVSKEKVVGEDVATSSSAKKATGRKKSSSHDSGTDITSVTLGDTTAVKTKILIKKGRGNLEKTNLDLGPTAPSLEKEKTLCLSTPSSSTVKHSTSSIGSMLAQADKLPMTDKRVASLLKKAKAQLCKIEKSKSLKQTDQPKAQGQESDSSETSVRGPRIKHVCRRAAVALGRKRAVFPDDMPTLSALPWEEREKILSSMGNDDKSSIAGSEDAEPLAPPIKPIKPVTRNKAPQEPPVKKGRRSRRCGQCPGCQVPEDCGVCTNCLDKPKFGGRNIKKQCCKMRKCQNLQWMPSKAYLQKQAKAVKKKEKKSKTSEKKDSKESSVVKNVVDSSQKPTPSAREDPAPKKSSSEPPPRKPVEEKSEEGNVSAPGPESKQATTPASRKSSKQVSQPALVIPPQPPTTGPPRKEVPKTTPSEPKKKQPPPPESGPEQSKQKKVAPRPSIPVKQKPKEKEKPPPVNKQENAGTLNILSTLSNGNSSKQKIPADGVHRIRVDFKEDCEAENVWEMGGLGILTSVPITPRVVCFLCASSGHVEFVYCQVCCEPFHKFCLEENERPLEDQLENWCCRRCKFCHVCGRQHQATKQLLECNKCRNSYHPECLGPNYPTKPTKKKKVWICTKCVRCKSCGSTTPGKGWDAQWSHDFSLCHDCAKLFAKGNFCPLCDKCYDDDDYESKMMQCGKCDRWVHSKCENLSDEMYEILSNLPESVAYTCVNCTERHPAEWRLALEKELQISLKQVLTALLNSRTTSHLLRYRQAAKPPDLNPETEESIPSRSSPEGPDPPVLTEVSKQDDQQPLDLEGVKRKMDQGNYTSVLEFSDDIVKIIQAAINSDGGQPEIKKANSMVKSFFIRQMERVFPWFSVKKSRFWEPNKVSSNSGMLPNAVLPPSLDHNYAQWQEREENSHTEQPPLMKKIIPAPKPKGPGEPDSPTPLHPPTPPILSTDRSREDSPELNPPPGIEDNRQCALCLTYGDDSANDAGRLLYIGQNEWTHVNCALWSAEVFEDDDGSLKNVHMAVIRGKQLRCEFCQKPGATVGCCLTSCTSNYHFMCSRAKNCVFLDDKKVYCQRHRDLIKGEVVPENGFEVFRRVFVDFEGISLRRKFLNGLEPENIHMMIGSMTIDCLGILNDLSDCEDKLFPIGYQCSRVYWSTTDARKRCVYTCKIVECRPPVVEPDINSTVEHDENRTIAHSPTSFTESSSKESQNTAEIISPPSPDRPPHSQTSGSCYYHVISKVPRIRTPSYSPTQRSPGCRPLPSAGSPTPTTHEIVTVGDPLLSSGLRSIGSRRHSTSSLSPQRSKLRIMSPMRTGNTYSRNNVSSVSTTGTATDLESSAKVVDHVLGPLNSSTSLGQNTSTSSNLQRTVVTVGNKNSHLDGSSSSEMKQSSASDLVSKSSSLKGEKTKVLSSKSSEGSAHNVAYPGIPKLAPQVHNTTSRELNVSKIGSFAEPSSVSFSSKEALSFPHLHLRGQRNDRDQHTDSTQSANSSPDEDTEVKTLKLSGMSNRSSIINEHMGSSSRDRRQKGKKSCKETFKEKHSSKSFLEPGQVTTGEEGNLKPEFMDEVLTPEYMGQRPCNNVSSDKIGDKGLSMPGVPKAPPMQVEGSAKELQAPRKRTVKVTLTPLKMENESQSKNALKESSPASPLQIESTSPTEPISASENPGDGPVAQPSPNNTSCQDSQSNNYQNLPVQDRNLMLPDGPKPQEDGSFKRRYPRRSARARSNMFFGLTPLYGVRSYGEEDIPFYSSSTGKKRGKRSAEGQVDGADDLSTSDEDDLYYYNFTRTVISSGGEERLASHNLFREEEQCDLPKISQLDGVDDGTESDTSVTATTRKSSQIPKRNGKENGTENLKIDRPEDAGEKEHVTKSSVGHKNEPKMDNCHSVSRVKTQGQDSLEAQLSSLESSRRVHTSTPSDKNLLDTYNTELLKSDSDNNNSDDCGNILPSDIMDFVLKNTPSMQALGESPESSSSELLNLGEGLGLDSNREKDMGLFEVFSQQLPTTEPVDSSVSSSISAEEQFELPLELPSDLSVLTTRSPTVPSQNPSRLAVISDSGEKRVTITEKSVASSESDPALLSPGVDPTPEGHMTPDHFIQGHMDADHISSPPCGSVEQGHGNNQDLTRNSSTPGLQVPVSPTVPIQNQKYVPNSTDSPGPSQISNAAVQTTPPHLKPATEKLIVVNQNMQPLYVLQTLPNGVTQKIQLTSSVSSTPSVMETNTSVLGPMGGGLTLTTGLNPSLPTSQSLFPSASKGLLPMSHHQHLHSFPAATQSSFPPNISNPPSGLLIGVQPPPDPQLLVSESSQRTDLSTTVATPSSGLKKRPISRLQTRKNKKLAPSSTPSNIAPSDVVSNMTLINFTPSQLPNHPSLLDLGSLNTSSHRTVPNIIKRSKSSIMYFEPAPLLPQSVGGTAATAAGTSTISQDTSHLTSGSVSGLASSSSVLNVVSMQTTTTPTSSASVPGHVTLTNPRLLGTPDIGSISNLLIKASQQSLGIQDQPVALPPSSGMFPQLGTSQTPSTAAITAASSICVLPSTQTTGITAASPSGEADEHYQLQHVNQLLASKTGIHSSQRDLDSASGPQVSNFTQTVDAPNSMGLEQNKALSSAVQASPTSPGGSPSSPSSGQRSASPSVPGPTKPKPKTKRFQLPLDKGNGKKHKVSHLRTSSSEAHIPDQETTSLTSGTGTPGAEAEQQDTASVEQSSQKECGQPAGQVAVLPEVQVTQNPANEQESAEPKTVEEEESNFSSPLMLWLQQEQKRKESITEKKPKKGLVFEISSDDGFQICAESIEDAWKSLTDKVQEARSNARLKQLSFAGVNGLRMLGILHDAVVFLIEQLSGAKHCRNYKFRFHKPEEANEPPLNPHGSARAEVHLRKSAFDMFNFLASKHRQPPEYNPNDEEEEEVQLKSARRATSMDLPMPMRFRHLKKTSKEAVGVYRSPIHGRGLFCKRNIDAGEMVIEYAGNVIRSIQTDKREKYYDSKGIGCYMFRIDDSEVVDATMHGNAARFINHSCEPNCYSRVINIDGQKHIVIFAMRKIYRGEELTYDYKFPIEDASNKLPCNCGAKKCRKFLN

What was measured:
[1] = biological target: KDM5A (human (endogenous in U87MG and HaCaT)) (UniProt P29375); assay: co-IP
[2] = biological target: MLL1 (human (endogenous in U87MG)) (UniProt Q03164); assay: co-IP

binding [1]: binds
binding [2]: binds
Substance: MLL2 (from UniProt Q9UMN6 1-2715)
